Changes are numbered by the printed parent chain. Names and notes keep the numbering of the source. For some assays here: The name of at least one read-out is uncertain. Some entries share one result that the patent states for a list of compounds.
B1: E432C: SSβG point mutant Glu-432→Cys (protein, listed as Sulfolobus solfataricus)
chain: MYSFPNSFRFGWSQAGFQSEMGTPGSEDPNTDWYKWVHDPENMAAGLVSGDLPENGPGYWGNYKTFHDNAQKMGLKIARLNVEWSRIFPNPLPRPQNFDESKQDVTEVEINENELKRLDEYANKDALNHYREIFKDLKSRGLYFILNMYHWPLPLWLHDPIRVRRGDFTGPSGWLSTRTVYEFARFSAYIAWKFDDLVDEYSTMNEPNVVGGLGYVGVKSGFPPGYLSFELSRRHMYNIIQAHARAYDGIKSVSKKPVGIIYANSSFQPLTDKDMEAVEMAENDNRWWFFDAIIRGEITRGNEKIVRDDLKGRLDWIGVNYYTRTVVKRTEKGYVSLGGYGHGCERNSVSLAGLPTSDFGWEFFPEGLYDVLTKYWNRYHLYMYVTENGIADDADYQRPYYLVSHVYQVHRAINSGADVRGYLHWSLADNYCWASGFSMRFGLLKVDYNTKRLYWRPSALVYREIATNGAITDEIEHLNSVPPVKPLRH
B2: W433C: SSβG point mutant Trp-433→Cys (protein, listed as Sulfolobus solfataricus)
chain: B1 chain with C432E, W433C
B3: WT: Wild type β-glycosidase from Sulfolobus solfataricus (SEQ ID NO: 2), recombinant with N-terminal His6-tag (protein, listed as Sulfolobus solfataricus)
chain: B1 chain with C432E
modifications: N-terminal His6 tag
B4: C344S: SsβG mutant C344S, side chain at position 439 —CH2CH2SCH3 (protein)
chain: B1 chain with C344S, C432E

Assays:
Type in all cases: biochemical
[1] = Substrate specificity compared across 4-methylumbelliferyl-β-D-glycosides; conditions: for kcat decrease in Gal,Glc turnover relative to WT: Gal and Glc substrates; for Man, Xyl kcat/KM lower than WT: Man and Xyl substrates; for KM increase relative to WT: greatest for Glc, Gal, Fuc
Experimental: (§1) Parameters were determined by the method of initial rates. Activity was measured in time course assays of the hydrolysis of 4-methylumbelliferyl-β-D-glycosides (β-D-gluco, β-D-galacto, β-D-fuco, β-D-manno, β-D-xylo, β-D-glucurono) at 5-15 concentrations (0.001-1.5 mM) incubated at 80° C. in 50 mM sodium phosphate buffer, pH 6.5. Reactions were terminated at 2, 5, 10, 15 min by the addition of 100 μl of ice cold 1M NazCO3, pH 10 and analyzed (Labsystems Fluoroscan Ascent plate reader, […]). KM and kcat were derived by fitting the initial rates to hyperbolic Michaelis-Menten curves using GraFit 4 (Erithacus Software Ltd, Staines, UK).
Determination of the Michaelis-Menten parameters for the WT and mutant enzymes was performed at pH 6.5 at 80° C. for a broad range of representative, fluorophore-containing 4-methylumbelliferyl glycoside substrates, which allowed activities to be determined with a high degree of sensitivity (Table). Under these optimized assay conditions, the glucoside (Glc), galactoside (Gal) and fucoside (Fuc) substrates were hydrolysed well by SSβG-WT, but the xyloside (Xyl) substrate was hydrolysed relatively poorly (approx. 3% of turnover as determined by kcat compared with β-D-glucoside). […] In all cases the absolute D-stereospecificity and β-stereoselectivity of SSβG was maintained and no activity was detected towards L- or α-glycoside substrates.

[2] = Hydrolysis of 4-methylumbelliferyl-β-D-glucuronide, initial rates; conditions: 4-MUGlcA, 80° C., pH 6.5
Experimental: as §1
Determination of the Michaelis-Menten parameters for the WT and mutant enzymes was performed at pH 6.5 at 80° C. for a broad range of representative, fluorophore-containing 4-methylumbelliferyl glycoside substrates, which allowed activities to be determined with a high degree of sensitivity (Table). Under these optimized assay conditions, the glucoside (Glc), galactoside (Gal) and fucoside (Fuc) substrates were hydrolysed well by SSβG-WT, but the xyloside (Xyl) substrate was hydrolysed relatively poorly (approx. 3% of turnover as determined by kcat compared with β-D-glucoside). […]

[3] = Kinetic assay with p-nitrophenyl β-D-galactopyranoside, absorbance at 405 nm; conditions: pNPGal, 45° C., pH 6.5 phosphate buffer; averaged over 3 runs, except * 2 runs
Experimental: (§2) The kinetic activity of SsδG was assessed using ultra-violet/visible spectroscopy. Cleavage of the glycosidic bond of the nitrophenyl sugar analogue releases a chromophore (Scheme 18), either p-nitrophenol or o-nitrophenol.
(§3) The absorbance of these chromophores at 405 nm was continuously measured at regular time intervals, and the Beer-Lambert Law used to calculate the chromophore concentration at each of these time intervals.
(§4) In order to use this equation the extinction coefficient, ∈, of both p-nitrophenol and o-nitrophenol were calculated. Enzyme kinetic parameters were assessed using the initial rates method. […] Kinetic parameters were calculated by regression analysis of the kinetic data on the Michaelis-Menten Model (Fersht, A., Enzyme Structure and Mechanism, W.H. Freeman and Company, New York (1985)). The initial rate of reaction was measured. […]
(§5) KM and νmax were calculated from non-linear Michaelis-Menten and linear Lineweaver-Burk plots. From these values, kcat and kcat/KM were calculated and compared.
(§6) KM=νmax/2, it is the concentration of substrate at which half the active sites are filled. […] To allow comparison of the activity of the enzymes, ln({kcat/KM}mutant/{kcat/KM}WT) was calculated for each enzyme-substrate combination, to give overall activity relative to WT. […]

[4] = Kinetic assay with o-nitrophenyl β-D-galactopyranoside-6-phosphate, absorbance at 405 nm; conditions: oNPGalP6, 45° C., pH 6.5 phosphate buffer; averaged over 3 runs, except * 2 runs
Experimental: as §2, §3, §4, §5, §6

Row | Molecule | loss of affinity corresponding to kcat/KM decreases [1] | kcat decrease in Gal,Glc turnover relative to WT [1] | Man, Xyl kcat/KM lower than WT [1] | KM increase relative to WT [1] | kcat/Km [2] | (kcat/KM) [3] | (kcat/KM) [4]
1 | B1 | 1.08 to 2.51 kcal/mol | 5- to 30 fold | 10-16 fold | up to 37 fold | NAD | – | –
2 | B2 | 1.08 to 2.51 kcal/mol | 5- to 30 fold | 10-16 fold | up to 37 fold | NAD | – | –
3 | B3 | – | – | – | – | – | 11140 M⁻¹ s⁻¹ | 2652 M⁻¹ s⁻¹
4 | B4 | – | – | – | – | – | 8787 M⁻¹ s⁻¹ | 2357 M⁻¹ s⁻¹

Source: patent US20090181444A1, “MODIFIED CARBOHYDRATE PROCESSING ENZYME” (priority 2002, published 2009)
